Source: patent US20250129370A1, “METHOD FOR REDUCING HEPATIC TRIGLYCERIDES” (ADAERATA, LIMITED PARTNERSHIP, priority 2022, published 2025)
Some of these results come from one statement about several compounds together.

Legend:
[1] = tested on: PCSK7 mRNA; experiment: PCSK7 mRNA qPCR after miRNA overexpression in Huh7 cells; assay type: cell-based, human; conditions: Huh7, 48 hours following transfection, vs mock vector
Description: RNA was isolated from the cells with the TRIzol™ Reagent (Invitrogen, USA) according to the manufacturer's instructions. The RNA samples were treated with RNase-free DNase I (Fermentas, USA) to eliminate any possible DNA contamination. Reverse transcription was performed using the PrimeScript™ First Strand cDNA Synthesis Kit (Takara, Japan) following the manufacturer's protocol. Briefly, one unit of the DNase I enzyme, 1 μL of a buffer, and 1 μg of total RNA were incubated for 30 minutes at 37° C. Then, 1 μL of 50 mM EDTA was added for enzyme inactivation and incubated at 65° C. for 10 minutes. Subsequently, 5 μL of DNase-treated RNA was added to the mix of 0.5 μL of the reverse-transcriptase enzyme, 2 μL of the reverse-transcriptase buffer, and 1 μL of a random hexamer and incubated for 15 minutes at 37° C., followed by 5 seconds at 85° C. for enzyme inactivation. Stem-loop RT-qPCR method was applied for evaluating the expression of miRNAs (Kramer, 2011). […]
All the reactions were repeated in duplicates. Next, melt curves were analyzed, with the mean threshold cycles used for further analyses. The relative expressions of the miRNAs and PCSK7 to RNU48 small nuclear RNA and/or GAPDH and β2m were calculated, respectively, via the 2-ΔΔCt method. […]

[2] = tested on: 3′-UTR of human PCSK7 mRNAs; experiment: Dual-luciferase reporter assay, wild-type PCSK7 3′-UTR, HEK293T cells; assay type: cell-based; conditions: wild-type PCSK7 3′-UTR psiCHECK-2, HEK293T
From the text: The interactions between the miRNAs and their probable targets on PCSK7 were explored by cloning the potential target regions in psiCHECK-2™ (Promega, USA), a luciferase reporter vector. In psiCHECK-2™, hRluc, the Renilla luciferase gene, is located upstream of the target regions of interest cloned into the psiCHECK-2™ vector downstream of the Renilla gene. The region corresponding to the 3′-UTR of PCSK7 (926-nt sequences in length) that constituted the predicted miRNA response elements was PCR-amplified and cloned downstream of the Renilla luciferase gene in the psiCHECK-2™ vector (Promega, USA). […]
The HEK293T cells were co-transfected through the application of the wild-type psiCHECK-2, the wild-type PCSK7 3′-UTR, the mutant PCSK7 3′-UTR, and the miR-overexpressing vectors so that the direct interactions of the nominated miRNAs with PCSK7 3′-UTR could be investigated. […] Transfection efficiency was monitored by fluorescent microscopy (Nikon TE2000S, Japan) 36 hours following the procedure.
The PsiCHECK-2 reporter construct plasmid contained the Renilla luciferase gene upstream of PCSK7 3′-UTR and an independent firefly luciferase gene as an internal control for normalization. […] Then, LARII Reagent was added, and after 20 minutes, the firefly luciferase activity was measured as a control. Afterward, Renilla activity was determined using Stop & Glo Reagent. […]

Substance	decrease of expression of PCSK7 mRNA [1]	reduction of relative luciferase activity [2]
miR-143-3p: miRNA with two target sites in the PCSK7 3′-UTR, overexpressed from precursor vector (UGAGAUGAAGCACUGUAGCUC; miRNA expressed from a precursor vector, further chemistry not given here)	40-50%	20-30%
miR-409-3p: miRNA with one target site in the PCSK7 3′-UTR, overexpressed from precursor vector (GAAUGUUGCUCGGUGAACCCCU; miRNA expressed from a precursor vector, further chemistry not given here)	40-50%	20-30%
